According to ChEMBL document CHEMBL4513141, “CO-ADD screening of NIH (USA) - Clinical Collection” (2021):
This is one part of the list. Potency and affinity values are given separately.

These compounds were tested on Acinetobacter baumannii. Conditions: Concentration 20 uM; ASSAY_TEST Inhibition of Bacterial Growth; detection method Absorption (OD600); MEDIA CAMHB; plate type 384well; NBS; CORNING #3640; time 18 hr.

Q: Which Inhibition does the source give for `CSc1nc2cc(Cl)c(Oc3cccc(Cl)c3Cl)cc2[nH]1` [TRICLABENDAZOLE] here?
A: 14.42%

Q: Which Inhibition does the source give for `O=C(CCNNC(=O)c1ccncc1)NCc1ccccc1` [NIALAMIDE] here?
A: 27.51%

Q: `NC(=O)c1cnccn1` [PYRAZINAMIDE] was tested. Which Inhibition did it give?
A: 18.65%

Q: With `CN1C(=O)CC[C@H]1c1cccnc1` [COTININE] as the compound, how does the Inhibition read?
A: 6.43%

Q: How did the Inhibition turn out when `CCCOc1ccc(C(=O)OCCN(CC)CC)cc1N.Cl` [PROPARACAINE HYDROCHLORIDE] was run?
A: 11.17%

Q: With `NS(=O)(=O)c1cc2c(cc1C(F)(F)F)NCNS2(=O)=O` [HYDROFLUMETHIAZIDE] as the compound, how does the Inhibition read?
A: 30.28%

Q: Which Inhibition does the source give for `CN1CCC(=C2c3ccccc3C=Cc3ccccc32)CC1.Cl` [CYPROHEPTADINE HYDROCHLORIDE] here?
A: 16.8%

Q: Which Inhibition does the source give for `CS(=O)(=O)OCCCCOS(C)(=O)=O` [BUSULFAN] here?
A: 32.17%

Q: With `CNCCCC12CCC(c3ccccc31)c1ccccc12.Cl` [MAPROTILINE HYDROCHLORIDE] as the compound, how does the Inhibition read?
A: 20.38%

Q: With `CC(=O)O.CNC(=N)NCCC[C@H](N)C(=O)O` [TILARGININE ACETATE] as the compound, how does the Inhibition read?
A: 7.2%

Q: `CC(=O)NS(=O)(=O)c1ccc(N)cc1` [SULFACETAMIDE] was tested. Which Inhibition did it give?
A: 21.15%

Q: For `Cc1cn([C@H]2C=C[C@@H](CO)O2)c(=O)[nH]c1=O` [STAVUDINE], which Inhibition is on record?
A: 24.61%

Q: Which Inhibition does the source give for `CCN(CC)CC(=O)Nc1c(C)cccc1C` [LIDOCAINE] here?
A: 23.46%

Q: Which Inhibition does the source give for `OCCN(CCO)c1nc(N2CCCCC2)c2nc(N(CCO)CCO)nc(N3CCCCC3)c2n1` [DIPYRIDAMOLE] here?
A: 12.25%

Q: `COCCCC/C(=N\OCCN)c1ccc(C(F)(F)F)cc1.O=C(O)/C=C\C(=O)O` [FLUVOXAMINE MALEATE] was tested. Which Inhibition did it give?
A: 21.08%

Q: How did the Inhibition turn out when `Nc1nc(Cl)nc2c1ncn2[C@@H]1O[C@H](CO)[C@@H](O)[C@H]1O` was run?
A: 9.97%

Q: For `O=c1c(O[C@@H]2O[C@H](CO)[C@H](O)[C@H](O)[C@H]2O)c(-c2ccc(O)c(O)c2)oc2cc(O)cc(O)c12` [HYPEROSIDE], which Inhibition is on record?
A: 28.71%

Q: With `C[C@]12CC[C@@H]3c4ccc(OS(=O)(=O)[O-])cc4CC[C@H]3[C@@H]1CCC2=O.[Na+]` [ESTRONE SODIUM SULFATE] as the compound, how does the Inhibition read?
A: 14.02%

Q: For `CC(C)[N+](C)(CCOC(=O)C1c2ccccc2Oc2ccccc21)C(C)C.[Br-]` [PROPANTHELINE BROMIDE], which Inhibition is on record?
A: 15.49%

Q: Which Inhibition does the source give for `CCOC(=O)[C@H](CCc1ccccc1)N[C@@H](C)C(=O)N1Cc2ccccc2C[C@H]1C(=O)O.Cl` [QUINAPRIL HYDROCHLORIDE] here?
A: 16.28%

Q: How did the Inhibition turn out when `C[C@@H](O)[C@H]1C(=O)N2C(C(=O)O)=C(S[C@@H]3CN[C@H](C(=O)N(C)C)C3)[C@H](C)[C@H]12` [MEROPENEM] was run?
A: 10.36%

Q: Which Inhibition does the source give for `CS(=O)(=O)O.Cc1c(O)cccc1C(=O)N[C@@H](CSc1ccccc1)[C@H](O)CN1C[C@H]2CCCC[C@H]2C[C@H]1C(=O)NC(C)(C)C` [NELFINAVIR MESYLATE] here?
A: 15.7%

Q: How did the Inhibition turn out when `CCC[C@@H]1C[C@@H](C(=O)N[C@@H]([C@H]2O[C@H](SC)[C@H](O)[C@@H](O)[C@H]2O)[C@@H](C)O)N(C)C1.Cl.O` [LINCOMYCIN HYDROCHLORIDE] was run?
A: 17.64%

Q: With `COc1c2occc2cc2ccc(=O)oc12` [METHOXSALEN] as the compound, how does the Inhibition read?
A: 12.68%

Q: `N#Cc1ccc(C(c2ccc(C#N)cc2)n2cncn2)cc1` [LETROZOLE] was tested. Which Inhibition did it give?
A: 22.09%

Q: Which Inhibition does the source give for `CC(=O)OCC(=O)[C@@]1(O)CC[C@H]2[C@@H]3CCC4=CC(=O)C=C[C@]4(C)[C@H]3[C@@H](O)C[C@@]21C` [PREDNISOLONE ACETATE] here?
A: 25.62%

Q: `Oc1ncc(F)cn1` was tested. Which Inhibition did it give?
A: 29.89%

Q: `COC(=O)C1=C(C)NC(C)=C(C(=O)OCCN(C)Cc2ccccc2)C1c1cccc([N+](=O)[O-])c1.Cl` (stereo not given) [NICARDIPINE HYDROCHLORIDE] was tested. Which Inhibition did it give?
A: 9.21%

Q: `CCC(=O)[N-]S(=O)(=O)c1ccc(-c2c(-c3ccccc3)noc2C)cc1.[Na+]` [PARECOXIB SODIUM] was tested. Which Inhibition did it give?
A: 9.28%

Q: For `CC(C)(C(=O)O)c1ccc(C(O)CCCN2CCC(C(O)(c3ccccc3)c3ccccc3)CC2)cc1.Cl` (stereo not given) [FEXOFENADINE HYDROCHLORIDE], which Inhibition is on record?
A: 26.33%

Q: `CN1CCN(CC/C=C2/c3ccccc3Sc3ccc(S(=O)(=O)N(C)C)cc32)CC1` [THIOTHIXENE] was tested. Which Inhibition did it give?
A: 8.44%

Q: With `CN(C)CC/C=C1/c2ccccc2COc2ccc(CC(=O)O)cc21.Cl` [OLOPATADINE HYDROCHLORIDE] as the compound, how does the Inhibition read?
A: 3.87%

Q: With `CC1=C(C(=O)O)N2C(=O)[C@@H](NC(=O)[C@H](N)c3ccccc3)[C@H]2SC1.O` [CEPHALEXIN] as the compound, how does the Inhibition read?
A: 9.65%

Q: How did the Inhibition turn out when `C=C(CC)C(=O)c1ccc(OCC(=O)O)c(Cl)c1Cl` [ETHACRYNIC ACID] was run?
A: 27.96%

Q: `CCC(C)(C)/N=C(\NC#N)Nc1cccnc1` was tested. Which Inhibition did it give?
A: 11.34%

Q: How did the Inhibition turn out when `C[C@]12C[C@H](O)[C@H]3[C@@H](CCC4=CC(=O)CC[C@@]43C)[C@@H]1CC[C@@H]2C(=O)CO` [CORTICOSTERONE] was run?
A: 27.36%

Q: Which Inhibition does the source give for `CC(CCCCC(=O)Nc1ccc(C(F)(F)F)cc1)NCCc1c[nH]cn1.O=C(O)/C=C\C(=O)O.O=C(O)/C=C\C(=O)O` (stereo not given) here?
A: 8.6%

Q: `O=C(O)CCc1nc(-c2ccccc2)c(-c2ccccc2)o1` [OXAPROZIN] was tested. Which Inhibition did it give?
A: 21.17%

Q: How did the Inhibition turn out when `CCN(CC)CCNC(=O)c1cc(Cl)c(N)cc1OC.Cl` was run?
A: 16.26%

Q: `Clc1ccc2c(c1)C(N1CCNCC1)=Nc1ccccc1O2` [AMOXAPINE] was tested. Which Inhibition did it give?
A: 16.77%

Q: For `CCCSc1ccc2[nH]c(NC(=O)OC)nc2c1` [ALBENDAZOLE], which Inhibition is on record?
A: 18.94%

Q: How did the Inhibition turn out when `Cc1ccc(N(CC2=NCCN2)c2cccc(O)c2)cc1` [PHENTOLAMINE] was run?
A: 34.66%

Q: For `O=C1N[C@H](C(=O)O)CS1` [PROCYSTEINE], which Inhibition is on record?
A: 17.69%

Q: How did the Inhibition turn out when `C[C@H](N[C@@H](CCc1ccccc1)C(=O)O)C(=O)N1CCC[C@H]1C(=O)O` [ENALAPRILAT ANHYDROUS] was run?
A: 11.14%

Q: With `COC(=O)[C@H](c1ccccc1Cl)N1CCc2sccc2C1` [CLOPIDOGREL] as the compound, how does the Inhibition read?
A: 23.6%
